Assay results from article doi:10.1101/2024.07.02.601518.
No constants are given. Whether binding was seen depends on the method and setting. Binding seen in cells or lysates may run through a third protein. Some entries that bind do so weakly or less than the wild type.

Protein sequences, listed by entry. Tags and fused reporters are not part of them.
UniProt Q13148: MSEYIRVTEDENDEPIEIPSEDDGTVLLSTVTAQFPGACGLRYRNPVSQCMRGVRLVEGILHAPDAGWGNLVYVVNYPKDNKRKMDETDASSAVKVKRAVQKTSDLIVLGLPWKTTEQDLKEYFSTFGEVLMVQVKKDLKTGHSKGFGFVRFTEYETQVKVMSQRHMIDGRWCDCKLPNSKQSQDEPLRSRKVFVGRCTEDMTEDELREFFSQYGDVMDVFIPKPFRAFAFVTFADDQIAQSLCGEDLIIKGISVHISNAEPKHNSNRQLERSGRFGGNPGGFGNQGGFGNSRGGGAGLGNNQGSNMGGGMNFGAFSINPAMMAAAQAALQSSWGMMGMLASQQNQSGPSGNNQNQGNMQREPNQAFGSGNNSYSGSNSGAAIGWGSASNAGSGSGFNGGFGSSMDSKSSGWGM
UniProt Q16665: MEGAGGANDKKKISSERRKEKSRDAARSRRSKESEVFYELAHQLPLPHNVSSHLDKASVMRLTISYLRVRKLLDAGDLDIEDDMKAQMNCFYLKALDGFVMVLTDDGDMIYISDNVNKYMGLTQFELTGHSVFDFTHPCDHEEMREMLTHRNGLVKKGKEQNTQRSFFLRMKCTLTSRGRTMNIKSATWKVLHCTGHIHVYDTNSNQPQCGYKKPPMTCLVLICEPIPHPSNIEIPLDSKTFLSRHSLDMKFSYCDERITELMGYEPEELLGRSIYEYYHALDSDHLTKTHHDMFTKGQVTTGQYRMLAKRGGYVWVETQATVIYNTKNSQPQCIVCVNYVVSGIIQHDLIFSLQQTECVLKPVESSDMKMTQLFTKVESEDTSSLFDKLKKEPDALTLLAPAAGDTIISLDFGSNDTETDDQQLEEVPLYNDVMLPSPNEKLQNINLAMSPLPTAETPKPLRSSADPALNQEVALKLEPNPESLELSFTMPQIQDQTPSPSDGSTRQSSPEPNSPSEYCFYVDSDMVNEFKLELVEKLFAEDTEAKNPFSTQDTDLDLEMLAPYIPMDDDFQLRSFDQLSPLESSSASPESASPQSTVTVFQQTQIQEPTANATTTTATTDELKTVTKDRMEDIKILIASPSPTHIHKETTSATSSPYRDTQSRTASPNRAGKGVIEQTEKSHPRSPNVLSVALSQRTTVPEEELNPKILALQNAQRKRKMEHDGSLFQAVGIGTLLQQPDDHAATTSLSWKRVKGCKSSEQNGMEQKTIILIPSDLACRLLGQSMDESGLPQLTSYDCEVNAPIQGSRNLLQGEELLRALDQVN
UniProt Q9H0K1: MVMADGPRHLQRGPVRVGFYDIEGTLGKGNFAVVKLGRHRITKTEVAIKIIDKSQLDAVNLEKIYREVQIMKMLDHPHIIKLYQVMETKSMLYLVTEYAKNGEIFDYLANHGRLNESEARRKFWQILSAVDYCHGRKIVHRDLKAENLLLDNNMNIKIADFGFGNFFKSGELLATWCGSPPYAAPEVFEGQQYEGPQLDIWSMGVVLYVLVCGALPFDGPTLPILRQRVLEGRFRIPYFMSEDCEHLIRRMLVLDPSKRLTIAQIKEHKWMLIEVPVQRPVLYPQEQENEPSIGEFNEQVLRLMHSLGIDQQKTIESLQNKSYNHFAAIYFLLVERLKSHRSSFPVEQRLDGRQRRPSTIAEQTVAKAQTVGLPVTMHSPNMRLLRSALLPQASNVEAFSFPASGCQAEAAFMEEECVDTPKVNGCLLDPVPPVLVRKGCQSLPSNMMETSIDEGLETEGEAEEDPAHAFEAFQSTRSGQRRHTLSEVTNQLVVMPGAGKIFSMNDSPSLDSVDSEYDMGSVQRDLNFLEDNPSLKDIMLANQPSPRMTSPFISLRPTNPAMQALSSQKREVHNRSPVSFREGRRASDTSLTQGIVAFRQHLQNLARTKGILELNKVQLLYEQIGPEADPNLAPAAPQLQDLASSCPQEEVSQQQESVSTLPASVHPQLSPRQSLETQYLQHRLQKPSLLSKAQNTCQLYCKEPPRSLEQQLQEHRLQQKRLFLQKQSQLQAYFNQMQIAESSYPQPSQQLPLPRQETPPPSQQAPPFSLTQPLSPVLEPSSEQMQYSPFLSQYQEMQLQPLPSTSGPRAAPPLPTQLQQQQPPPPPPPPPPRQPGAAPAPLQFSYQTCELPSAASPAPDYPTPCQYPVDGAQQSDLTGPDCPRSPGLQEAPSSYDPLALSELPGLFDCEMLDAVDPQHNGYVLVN

Experiments:
[1] = molecular target: TDP-43, human (human (endogenous in UT7/TPO)) (UniProt Q13148); experiment: co-IP
[2] = molecular target: Hypoxia-inducible factor 1-alpha (HIF-1α), human (human (endogenous in UT7/TPO)) (UniProt Q16665); experiment: co-IP

| binding [1] | binding [2] | Substance |
| --- | --- | --- |
| binds | – | Hypoxia-inducible factor 1-alpha (HIF-1α), human (from UniProt Q16665 1-826) |
| – | binds | SIK2, human (from UniProt Q9H0K1 1-926) |
| – | binds | TDP-43, human (from UniProt Q13148 1-414) |
